Measurements as given in PubChem BioAssay AID192 (DTP/NCI, 2004).
The list does not hold the whole screen: it is rich in T/C values a quarter to a half above the control, in often repeated tests (any T/C) and in doses without a T/C. Further doses and runs are listed elsewhere. T/C: endpoint of the treated group in % of that of the vehicle group. Some entries give survivors of the animals treated and no T/C: the source holds a T/C of zero for them, seemingly a mark for toxic or unscored doses. Some survivor counts are full or nearly so, which does not show that the dose was tolerated: survival well below the control is almost never listed, so the zero probably covers shortened survival too. Counts of survivors are from the toxicity check (mostly the fifth day) where no day follows; animals may have died later. Schedule codes are those of the source, read here as Q, the interval in days (D) or hours (H), X, the number of doses. Additions like (4×) count equal records among those shown. Some entries hold several experiments; the results are listed from low to high. Where survival is the endpoint, this PubChem deposit counts one and a half times the control or more as active, and values a quarter to a half above the control carry no call in these data; other NCI protocols may use other cut-offs.

Test system: BDF1 mice, B16 melanoma ip, median survival T/C
Experiment: NCI In Vivo Anticancer Drug Screen. Data for tumor model B16 Melanoma (intraperitoneal) in B6D2F1 (BDF1) mice
Settings: T/C endpoint: median survival time, higher T/C = longer survival
Summary of the method: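 In this screen, activity was judged from survival or tumor size in treated versus vehicle-treated tumor-bearing mice, reported as T/C.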

[1] = dose: 12.5 mg/kg/injection, schedule: Q01DX009 (ip), vehicle: saline with Tween-80
[2] = dose: 25.0 mg/kg/injection, schedule: Q01DX009 (ip), vehicle: saline with Tween-80
[3] = dose: 100.0 mg/kg/injection, schedule: Q01DX009 (ip), vehicle: saline with Tween-80
[4] = dose: 25.0 mg/kg/injection, schedule: Q01DX009 (ip), vehicle: Klucel (hydroxypropylcellulose) (HPC)
[5] = dose: 50.0 mg/kg/injection, schedule: Q01DX009 (ip), vehicle: Klucel (hydroxypropylcellulose) (HPC)
[6] = dose: 100.0 mg/kg/injection, schedule: Q01DX009 (ip), vehicle: Klucel (hydroxypropylcellulose) (HPC)
[7] = dose: 200.0 mg/kg/injection, schedule: Q01DX009 (ip), vehicle: saline with Tween-80
[8] = dose: 25.0 mg/kg/injection, schedule: Q01DX009 (ip), vehicle: water
[9] = dose: 400.0 mg/kg/injection, schedule: Q01DX009 (ip), vehicle: saline with Tween-80
[10] = dose: 200.0 mg/kg/injection, schedule: Q01DX009 (ip), vehicle: Klucel (hydroxypropylcellulose) (HPC)
[11] = dose: 400.0 mg/kg/injection, schedule: Q01DX009 (ip), vehicle: Klucel (hydroxypropylcellulose) (HPC)

## CCCCn1c(O)c(C=N)c(=O)n(CCCC)c1=O
[1]
  survivor count: 10 of 10
[2]
  survivor count: 10 of 10
dose: 50.0 mg/kg/injection, schedule: Q01DX009 (ip), vehicle: saline with Tween-80
  survivor count: 9 of 10
[3]
  survivor count: 7 of 10

## CCOC(=O)C(=O)C(C#N)C(=O)OCC (centres undefined)
dose: 12.5 mg/kg/injection, schedule: Q01DX009 (ip), vehicle: Klucel (hydroxypropylcellulose) (HPC)
  T/C: 129 % of control
[4]
  survivor count: 10 of 10
[5]
  survivor count: 10 of 10
[6]
  survivor count: 10 of 10

## CSc1nc(N)cc(NC(=O)CCl)n1
[3]
  survivor count: 6 of 6
[7]
  survivor count: 3 of 6

## CCOC(=O)NC(C)(C)CN(CCO)C(=O)OCC
dose: 200.0 mg/kg/injection, schedule: Q04DX003 (ip), vehicle: Klucel (hydroxypropylcellulose) (HPC)
  survivor count: 8 of 10

## COc1cccc2c1C(=O)c1c(O)c3c(c(O)c1C2=O)C[C@@](O)(/C(C)=N/NC(=O)c1ccc(S(N)(=O)=O)cc1)C[C@@H]3OC1CC(N)C(O)C(C)O1 (some centres undefined)
dose: 0.78 mg/kg/injection, schedule: Q01DX009 (ip), vehicle: water
  T/C: 141 % of control
dose: 1.56 mg/kg/injection, schedule: Q01DX009 (ip), vehicle: water
  T/C: 147 % of control
[8]
  survivor count: 10 of 10

## O=C(O)CC(NC(=O)c1ccccc1)C(=O)O (centres undefined)
[3]
  survivor count: 10 of 10
[7]
  survivor count: 10 of 10
[9]
  survivor count: 8 of 10

## CC[CH](C)[Hg][c]1cccc2ccccc12 (centres undefined)
[6]
  survivor count: 6 of 10

## CCN(CC)CCCC(C)Nc1c2ccc(C)cc2nc2ccc(OC)cc12 (centres undefined)
dose: 25.0 mg/kg/injection, schedule: Q01DX009 (ip), vehicle: saline
  T/C: 126 % of control
dose: 100.0 mg/kg/injection, schedule: Q01DX009 (ip), vehicle: saline
  survivor count: 0 of 10 and 2 of 10

## CC(NC(=O)C1CCCN1C(=O)OCc1ccccc1)C(=O)O (centres undefined)
[7]
  survivor count: 10 of 10
[9]
  survivor count: 10 of 10

## Cc1ccc2c(ccc3c[n+]4ccccc4c(C)c32)c1
dose: 10.0 mg/kg/injection, schedule: Q01DX009 (ip), vehicle: saline with Tween-80
  survivor count: 4 of 10 (2×)
dose: 20.0 mg/kg/injection, schedule: Q01DX009 (ip), vehicle: saline with Tween-80
  survivor count: 1 of 10

## COC1NC(=O)NC(=O)C1=[N+]=[N-] (centres undefined)
dose: 4.0 mg/kg/injection, schedule: Q01DX009 (ip), vehicle: water
  T/C: 131 % of control
dose: 8.0 mg/kg/injection, schedule: Q01DX009 (ip), vehicle: water
  T/C: 134 % of control
dose: 16.0 mg/kg/injection, schedule: Q01DX009 (ip), vehicle: water
  survivor count: 4 of 10

## Cc1ccc(C(=O)NC2C(=O)NC(C(C)C)C(=O)N3CCCC3C(=O)N(C)CC(=O)N(C)C(C(C)C)C(=O)OC2C)c2c1Oc1c(c(C(=O)NC3C(=O)NC(C(C)C)C(=O)N4CCCC4C(=O)N(C)CC(=O)N(C)C(C(C)C)C(=O)OC3C)c3nc(-c4ccccc4)c(=O)oc3c1C)N2 (centres undefined)
dose: 0.25 mg/kg/injection, schedule: Q04DX003 (ip), vehicle: water
  T/C: 144 % of control
dose: 2.0 mg/kg/injection, schedule: Q04DX003 (ip), vehicle: saline + alcohol
  survivor count: 10 of 10
dose: 2.0 mg/kg/injection, schedule: Q04DX003 (ip), vehicle: water
  survivor count: 10 of 10
dose: 4.0 mg/kg/injection, schedule: Q04DX003 (ip), vehicle: saline + alcohol
  survivor count: 10 of 10

## NC(=O)OCCCc1ccccc1
[10]
  survivor count: 9 of 10

## COc1cccc2c1C(=O)c1c(O)c3c(c(O)c1C2=O)C[C@@](O)(C(C)O)C[C@@H]3OC1CC(N2CCC(OC)CC2)C(O)C(C)O1 (some centres undefined)
dose: 3.12 mg/kg/injection, schedule: Q01DX001 (ip), vehicle: water
  T/C: 131 % of control
dose: 6.25 mg/kg/injection, schedule: Q01DX001 (ip), vehicle: water
  T/C: 146 % of control
dose: 12.5 mg/kg/injection, schedule: Q01DX001 (ip), vehicle: water
  T/C: 132 % of control
dose: 50.0 mg/kg/injection, schedule: Q01DX001 (ip), vehicle: water
  survivor count: 0 of 10

## Cc1ccc(C)c(C(O)C2CC2)c1 (centres undefined)
[7]
  survivor count: 10 of 10

## Cc1cc(O)c(N=Nc2ccc(C(=O)O)cc2)cc1C
dose: 400.0 mg/kg/injection, schedule: Q01DX009 (ip), vehicle: suspension in saline
  survivor count: 8 of 10

## CSCCC(C#N)c1ccccc1 (centres undefined)
[7]
  survivor count: 4 of 10

## CCOC(=O)CC(SP(=S)(OC)OC)C(=O)OCC (centres undefined)
[9]
  survivor count: 0 of 10 and 4 of 10
dose: 400.0 mg/kg/injection, schedule: Q01DX009 (ip), vehicle: saline
  survivor count: 5 of 10

## Oc1ccc(SCc2ccc(NCc3ccccc3)cc2)cc1
dose: 12.5 mg/kg/injection, schedule: Q01DX009 (ip), vehicle: DMSO
  survivor count: 9 of 9
dose: 25.0 mg/kg/injection, schedule: Q01DX009 (ip), vehicle: DMSO
  survivor count: 10 of 10
dose: 50.0 mg/kg/injection, schedule: Q01DX009 (ip), vehicle: DMSO
  survivor count: 10 of 10
dose: 100.0 mg/kg/injection, schedule: Q01DX009 (ip), vehicle: DMSO
  survivor count: 10 of 10
dose: 200.0 mg/kg/injection, schedule: Q01DX009 (ip), vehicle: DMSO
  survivor count: 3 of 10
dose: 400.0 mg/kg/injection, schedule: Q01DX009 (ip), vehicle: DMSO
  survivor count: 1 of 10

## CCN(CC)CCCC(C)NC(C)CCCN(CC)CC (centres undefined)
[4]
  survivor count: 10 of 10
[8]
  survivor count: 10 of 10
[5]
  survivor count: 5 of 10
dose: 50.0 mg/kg/injection, schedule: Q01DX009 (ip), vehicle: water
  survivor count: 10 of 10
[6]
  survivor count: 1 of 10
dose: 100.0 mg/kg/injection, schedule: Q01DX009 (ip), vehicle: water
  survivor count: 0 of 10
[10]
  survivor count: 0 of 10
[11]
  survivor count: 0 of 10

## COc1cccc(N2C(=O)CSC2=S)c1
[11]
  survivor count: 1 of 10

## CCCCCCCCCCCCCCCCNS(=O)(=O)c1ccc(NN)cc1
[6]
  survivor count: 9 of 10
[10]
  survivor count: 10 of 10

## Cc1ccc(C)c(NS(=O)(=O)c2ccc(Cl)cc2)c1
[11]
  survivor count: 10 of 10

## CC1=C/C(=N\NS(=O)(=O)c2ccc([N+](=O)[O-])cc2)CC(C)(C)C1
[6]
  T/C: 139 % of control
[10]
  T/C: 136 % of control
[11]
  T/C: 141 % of control

## CCN1C=C/C(=C/c2cc3scc(-c4ccccc4)[n+]3c3ccccc23)c2ccccc21
dose: 0.6 mg/kg/injection, schedule: Q01DX009 (ip), vehicle: saline
  survivor count: 9 of 10

## CCC[CH2][Sn]1([CH2]CCC)[N](S(=O)(=O)c2ccc(C)cc2)c2ccccc2[N]1S(=O)(=O)c1ccc(C)cc1
dose: 6.0 mg/kg/injection, schedule: Q01DX009 (ip), vehicle: Klucel (hydroxypropylcellulose) (HPC)
  survivor count: 9 of 10
dose: 12.0 mg/kg/injection, schedule: Q01DX009 (ip), vehicle: Klucel (hydroxypropylcellulose) (HPC)
  survivor count: 7 of 10

## COc1cc(OC)c(/C=C/c2c3ccccc3cc[n+]2C)c(OC)c1
dose: 3.13 mg/kg/injection, schedule: Q01DX009 (ip), vehicle: saline with Tween-80
  survivor count: 10 of 10
dose: 6.25 mg/kg/injection, schedule: Q01DX009 (ip), vehicle: saline with Tween-80
  survivor count: 0 of 10
[1]
  survivor count: 0 of 10
[2]
  survivor count: 0 of 10
[3]
  survivor count: 0 of 10
[7]
  survivor count: 0 of 10
[9]
  survivor count: 0 of 10

## O=C(O[Si](Cc1ccccc1)(Cc1ccccc1)Cc1ccccc1)N(CCCl)CCCl
[3]
  survivor count: 10 of 10
[7]
  survivor count: 10 of 10
